Assay results as given in patent US20230047825A1, “ANTIMICROBIAL PEPTIDES” (priority 2019, published 2023).

Legend:
A549 = assay type: cell-based
HEK293 = assay type: cell-based, human
Experimental: Cytotoxicity assay. HeLa and HEK293 cell lines were purchased from ECACC and cultured in Eagle's Minimum Essential Media (EMEM) containing glutamine, supplemented with 10% FBS and 1× non-essential amino acids (NEAA) at 37° C., 10% CO2. Cytotoxicity was measured by incubating starter cultures of cells for 24 hours in a 96 well plate, gently removing the supernatant and replacing it with dilutions of peptides and controls, incubating for a further 24 hours and then staining of the cells with the second generation tetrazolium dye, XTT. […]

[1] = MIC in RPMI (value in parentheses)

Compound	Selectivity Index A549/EMRSA-15 (EC50 divided by the MIC) (A549; MIC in Mueller-Hinton broth)	Selectivity Index A549/EMRSA-15 (EC50 divided by the MIC) (A549; [1])	Selectivity Index HEK293/EMRSA-15 (EC50 divided by the MIC) (HEK293; MIC in Mueller-Hinton broth)	Selectivity Index HEK293/P. aeruginosa RP73 (tobramycin) (HEK293; MIC in Mueller-Hinton broth)	Selectivity Index HEK293/EMRSA-15 (EC50 divided by the MIC) (HEK293; [1])	Selectivity Index HEK293/P. aeruginosa RP73 (tobramycin) (HEK293; [1])
CC(C)C[C@@H](NC(=O)[C@@H](Cc1ccc(O)cc1)NC(=O)[C@@H](Cc1c[nH]cn1)NC(=O)[C@H](NC(=O)[C@@H](CC(C)C)NC(=O)[C@@H](C)NC(=O)[C@@H](C)NC(=O)[C@@H](CCCNC(=N)N)NC(=O)CNC(=O)[C@H](NC(=O)[C@@H](Cc1c[nH]cn1)NC(=O)[C@@H](CCCNC(=N)N)NC(=O)CNC(=O)[C@H](NC(=O)[C@@H](Cc1c[nH]cn1)NC(=O)[C@@H](C)NC(=O)[C@@H](C)NC(=O)[C@@H](CCCNC(=N)N)NC(=O)[C@@H](CCCNC(=N)N)NC(=O)[C@@H](Cc1ccccc1)NC(=O)[C@@H](Cc1ccccc1)NC(=O)[C@@H](CO)NC(=O)CNC(=O)[C@@H](Cc1c[nH]c2ccccc12)NC(=O)CN)C(C)C)C(C)C)[C@H](C)O)C(N)=O [D-pleurocidin-KR] (HELM PEPTIDE1{G.[dW].G.[dS].[dF].[dF].[dR].[dR].[dA].[dA].[dH].[dV].G.[dR].[dH].[dV].G.[dR].[dA].[dA].[dL].[dT].[dH].[dY].[dL].[am]}$$$$V2.0; N-terminus assumed)	28.3	113.0	18.2	12.8	72.8	4.6
CC(C)C[C@@H](NC(=O)[C@@H](Cc1ccc(O)cc1)NC(=O)[C@@H](Cc1c[nH]cn1)NC(=O)[C@H](NC(=O)[C@@H](CC(C)C)NC(=O)[C@@H](C)NC(=O)[C@@H](C)NC(=O)[C@@H](CCCCN)NC(=O)CNC(=O)[C@@H](C)NC(=O)[C@@H](Cc1c[nH]cn1)NC(=O)[C@@H](CCCCN)NC(=O)CNC(=O)[C@@H](C)NC(=O)[C@@H](Cc1c[nH]cn1)NC(=O)[C@@H](C)NC(=O)[C@@H](C)NC(=O)[C@@H](CCCCN)NC(=O)[C@@H](CCCCN)NC(=O)[C@@H](Cc1ccccc1)NC(=O)[C@@H](Cc1ccccc1)NC(=O)[C@@H](CO)NC(=O)CNC(=O)[C@@H](Cc1c[nH]c2ccccc12)NC(=O)CN)[C@H](C)O)C(N)=O [D-pleurocidin-VA] (HELM PEPTIDE1{G.[dW].G.[dS].[dF].[dF].[dK].[dK].[dA].[dA].[dH].[dA].G.[dK].[dH].[dA].G.[dK].[dA].[dA].[dL].[dT].[dH].[dY].[dL].[am]}$$$$V2.0; N-terminus assumed)	> 7.8	> 31.2	6.8	–	27.2	–
CC(C)C[C@H](NC(=O)[C@H](Cc1ccc(O)cc1)NC(=O)[C@H](Cc1c[nH]cn1)NC(=O)[C@@H](NC(=O)[C@H](CC(C)C)NC(=O)[C@H](C)NC(=O)[C@H](C)NC(=O)[C@H](CCCCN)NC(=O)CNC(=O)[C@H](C)NC(=O)[C@H](Cc1c[nH]cn1)NC(=O)[C@H](CCCCN)NC(=O)CNC(=O)[C@H](C)NC(=O)[C@H](Cc1c[nH]cn1)NC(=O)[C@H](C)NC(=O)[C@H](C)NC(=O)[C@H](CCCCN)NC(=O)[C@H](CCCCN)NC(=O)[C@H](Cc1ccccc1)NC(=O)[C@H](Cc1ccccc1)NC(=O)[C@H](CO)NC(=O)CNC(=O)[C@H](Cc1c[nH]c2ccccc12)NC(=O)CN)[C@@H](C)O)C(N)=O [Pleurocidin-VA] (H-GWGSFFKKAAHAGKHAGKAALTHYL-NH2; N-terminus assumed)	–	–	6.25	–	12.5	–

Where two headings read alike, the source gives them in different places. Where a SMILES comes first, the peptide text is derived from it.
